The values that follow come from PubChem BioAssay AID1508600 (Functional Genomics Laboratory (NCATS/FGL), 2020).

The campaign covered roughly 53,000 sequences. About 3,700 (7%) were called active.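 Rule for the calls: active = gene knockdowns whose robust z-score for IL-1 alpha signal is at least 2 or at most -2, so actives lie on both sides; inactive = the rest.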 The list shows a part of the results.

The test can be described thus: Components of the Cytosolic LPS Sensing Pathway: Gene Identification via Genome-wide siRNA Screen.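 Note: robust z of the log signal after scaling to non-targeting control siRNA wells of the plate.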 The conditions noted are these: RAW264.7 macrophages, IL-1a HTRF, actives lie on both sides, screened at 100 nM (by protocol), cells primed 5 h with Pam3CSK4 first. An outline of the steps: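 Mouse macrophage line RAW264.7 is transfected with siRNA (100 nM final), grown 48h, primed with TLR ligand Pam3CSK4 5 h and given intracellular LipidA 24 h. IL-1a in supernatant is read by HTRF and viability by luminescence.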
In the case of GGACUAUUCAAACCUAUAUTT against Hsf3, the z-score was inactive: 0.155.

For GGUAAACCUGCCAAUUUUGTT against Ovch2, the z-score was inactive: 1.54.

In the case of CCCUGUGCGAGAAUAGCAUTT against Pigh, the z-score is inactive: -1.31.

For CCAGCAAGUAAAACAAGCUTT against Olfr803, the z-score was inactive: 0.998.

For the sequence GGGACUCGUGCAACAUUAUTT against Tmigd3, the z-score was inactive: -1.21.

For the sequence CCUUCAAGAUAAAUUGACATT against Tango6, the z-score was inactive: 0.755.

For GGAAGAUCACAGAAUUCUCTT against Aoc1, the z-score was inactive: 0.592.

For the sequence GGGCAAAAACAAGCAAAAATT against Lima1, the z-score is inactive: -0.849.

Regarding GGAAAUUGAACAGCGAUUATT against Gatad2b, the z-score is inactive: 0.871.

For the sequence GGCAAAGUUAUCAAGGAGATT against Slc17a6, the z-score is inactive: -0.00335.

With GGGCAAAGUGAUUGGCAUATT against Aifm2, the z-score is inactive: 0.481.

On to GCCACUCUAGCUCGUAUUGTT against Des, for which the z-score is inactive: 0.896.

For GGCUAAAAUAAAGAAGAAGTT against Cfap100, the z-score was inactive: 0.00546.

Regarding CGAGCUUGUUUUUGGAAGUTT against Uts2b, the z-score is inactive: 1.23.

With CCACACUUAGUCAUUUUCUTT against Paral1, the z-score was active: -2.06.

Consider GGACAUACCCUUAACCAAATT against Plekhb1, for which the z-score is inactive: -1.21.

Take GCAAAUCCGAAUGAACCUUTT against Cabp5: the z-score was inactive: -0.159.

Consider GGCAGAACGGAAUAAAAUGTT against Stag2, for which the z-score is active: -3.03.

Take “GGCAGAAUGAUGAACUGUUTT against A830073O21Rik”: the z-score is inactive: -1.82.

Turning to GGUUGCUCUUCUUAAGGAGTT against Aimp1, the z-score was inactive: 0.415.

For GGAGGCAGAGCUGUCCAAATT against Timm10, the z-score is inactive: -1.35.

On to GGACGCACACGUACAUCGUTT against Mex3d, for which the z-score is inactive: 0.65.

As to AAUGCAGGUUAUUGUGGGATT against Gm5334, the z-score is inactive: -0.288.

With GGGAGACCUUACUUUUUAATT against Foxr2, the z-score is inactive: 1.04.

As to GCUGCAUCUAAAGCCUUAATT against Olfr661, the z-score is inactive: 1.41.

On to GGAAGAAAAAGAAAAGAGUTT against Dek, for which the z-score is inactive: -0.634.

Turning to GGACAUCCAUUCAUGCUUUTT against Serpinb1b, the z-score is inactive: -0.529.

As for GGAGAAAAUCAAAGAAGCUTT against Gnpda2, the z-score was inactive: -1.44.

GGCCUAAACCCUUUCAUCUTT against V1rb6: the z-score was inactive: -0.0202.

GCAGUGCGAUUGCUUACAGTT against Tube1: the z-score is inactive: 1.07.

For GCUGAGUCAAAAUGUAAAGTT against Cdc25c, the z-score was inactive: 0.354.

For GGCACUGUAGACAAACUCUTT against Stxbp1, the z-score was inactive: -0.468.

Consider GGAGUUGAAUGGCUCUGGATT against Usp26, for which the z-score is active: -2.11.

Take GCUGAAUCUGUUGUCCGUGTT against Mpo: the z-score is inactive: 1.1.

In the case of GGUCGUUGUGUCUGAAUACTT against Triml1, the z-score was inactive: 0.729.

On to GGAAGCAAAAUAAAGAAACTT against Myo1e, for which the z-score is inactive: 0.109.

GCCGACAUAGCAUUAUUAATT against Spry2: the z-score is inactive: -0.194.

In the case of CCAAUGUUGGAAAGCCUUUTT against Zfp97, the z-score is inactive: 0.236.

Regarding CGACUUGCAUCAGUGGAUCTT against Cpxm2, the z-score was inactive: 1.97.

Take GGCAGUAUCCUUAUGCAUGTT against Ptges3: the z-score was inactive: 1.53.

Take GGGUUUCGCUAGAACCAUUTT against Plekhg5: the z-score is inactive: -0.541.

Consider GGCCUUAUUGAUAAGUCUUTT against Acot3, for which the z-score is inactive: 0.662.

Regarding GGAGGAAAAGAAAGGUCCUTT against Klc3, the z-score is inactive: 0.628.

Turning to CCUAAUUUGAUCCUUCGAATT against Zfp672, the z-score is inactive: -0.947.

Regarding GCUUCACUCACAUAAUAUCTT against Mrps31, the z-score is inactive: -0.932.

Consider CAUCAUUGAGAUGUCACACTT against Ypel4, for which the z-score was inactive: -0.879.

Take GGACUUCAUCAACAACAUCTT against Nsmce1: the z-score is inactive: 0.459.

With GCAGUUCGUAAAAAGGAAATT against Cenpo, the z-score was inactive: 0.697.

Consider GGUUAAUAAUGCGACAGCATT against Rbfox1, for which the z-score was inactive: 0.00257.

For GGUAAACUGACCCAAGCUGTT against Zbtb26, the z-score is inactive: -0.205.

For GCAGCUUGAGUUCUCGAAUTT against BC049715, the z-score was inactive: 0.971.

In the case of GGAAUAGAGAUAUCAGUAATT against Olfr866, the z-score was inactive: 0.814.

As to GCAUUACACUUAACUGACGTT against Zfp652, the z-score was inactive: -1.28.

On to GCACCUCCAGAAUGUUUUUTT against Vmn1r16, for which the z-score was inactive: 1.9.

Regarding GGAACUUUCUAAAGUGUUUTT against Med10, the z-score is inactive: 0.627.

As to GGACAUGUUUCCUGACCUGTT against Zbtb7c, the z-score was inactive: -0.289.

As for GGUUGGGAGAAGAAACUUCTT against Tbc1d19, the z-score was inactive: -0.959.

In the case of CGAGCAUAAAAGUUAUGUGTT against Chaf1b, the z-score is inactive: 1.07.

On to GGAACAAAAACUGGUGCGCTT against Emilin2, for which the z-score was active: 2.07.

Take ACCUGUGAUGGUGGAGACUTT against AF067061: the z-score was inactive: 0.577.

Consider GGAGAAGAAGAACUACUGCTT against Vwc2, for which the z-score is inactive: -0.982.

With GGGUCAUGGACAAUAGAAATT against Olfr52, the z-score is inactive: -0.833.

For the sequence GCAAGACGGUGAUUGUAACTT against Pck2, the z-score is inactive: -0.243.

Regarding GGUCCUUGAUGAGUGUAAUTT against Erp29, the z-score was inactive: 0.379.

In the case of GGACAAAUUCUCCUUUGACTT against Fkbp4, the z-score was inactive: -0.0663.

With GGACCAGUUAAAGUCACCATT against Atp4b, the z-score was inactive: -1.81.

With GGCAAUGAACUGAGUUGCUTT against Ugt2a2, the z-score is inactive: -0.207.

GGACAUUCGGCCCUAUUGCTT against Got1: the z-score was inactive: -0.31.
